# Where a name gives a salt, the structure may show the parent alone. Read-outs that look alike come from different tables or passages of the source. About 60 (2%) of roughly 3,300 compounds showed an effect of 50% or more. Some of the results follow. Peptide text beside a SMILES is read from it.
# Test system: HCoV-OC43
# Parameters: species or system RD; HTS, protection from HCoV-OC43 induced cell death, luminescent cell viability (CellCounting-Lite 2.0), inhibition rate
# Conditions: 24 h post infection, 1 h compound pre-incubation, 10 µM, inhibitor
SMILES,OC43 Inhibition rate [%],"OC43 Inhibition rate (OC43 Inhibition rate, 24 h) [%]"
COC(=O)C[C@](O)(CCCC(C)(C)O)C(=O)O[C@@H]1C(OC)=C[C@]23CCCN2CCc2cc4c(cc2[C@H]13)OCO4 [Homoharringtonine],0.5,–
"COc1cc(O)cc(OC)c1 [3,5-Dimethoxyphenol]",-0.4,–
C[C@@H](CO[C@@H]1O[C@H](CO)[C@@H](O)[C@H](O)[C@H]1O)[C@@H]1CC[C@@]2(CC[C@]3(C)[C@H](CC[C@@H]4[C@@]5(C)CC[C@H](O[C@@H]6O[C@H](CO)[C@@H](O)[C@H](O)[C@H]6O[C@@H]6O[C@H](CO)[C@@H](O)[C@H](O)[C@H]6O)[C@@](C)(CO[C@@H]6O[C@H](CO)[C@@H](O)[C@H](O)[C@H]6O)[C@@H]5CC[C@]43C)[C@H]2O)CO1 [Hosenkoside K],-0.2,–
O[C@H]1[C@H](O)[C@@H](O)[C@H](O)[C@@H](O)[C@H]1O [i-Inositol],3.1,–
C=C(C)[C@@H]1CC[C@]2(CO)CC[C@]3(C)[C@H](CC[C@@H]4[C@@]5(C)CC[C@H](O)C(C)(C)[C@@H]5CC[C@]43C)[C@@H]12 [Betulin],-0.2,–
COc1cc(C(=O)O)ccc1O [Vanillic acid],0.1,–
CCCCC[C@H](O)/C=C/[C@H]1[C@H](O)CC(=O)[C@@H]1C/C=C\CCCC(=O)O [Prostaglandin E2],0.3,–
O=C1C=CC[C@@H]2[C@H]3CCCN4CCC[C@@H](CN12)[C@@H]34 [Sophocarpine (monohydrate)],–,0.3
CC(C)=CC1CC(O)(C2CCC3(C)C2CCC2C4(C=O)CCC(OC5OCC(O)C(OC6OCC(O)C(O)C6O)C5OC5OC(C)C(O)C(O)C5O)C(C)(C)C4CCC23C)C(O)O1 (stereo not drawn) [Gypenoside A],0.6,–
COc1c(/C=C/C(=O)c2ccc(O)c(CC=C(C)C)c2)ccc(O)c1O [Licochalcone D],9.9,–
CC1=C\[C@@H](O)CC(=O)Cc2nc(co2)C(=O)N2CCC=C2C(=O)O[C@H](C(C)C)[C@H](C)/C=C/C(=O)NC\C=C\1 [Virginiamycin M1],6.6,–
CCCCCCCCCCCCCCCCCC(=O)OC [Methyl stearate],-1.4,–
CO[C@@H]1[C@H](OC(=O)/C=C/C=C/C=C/C=C/C(=O)O)CC[C@]2(CO2)[C@H]1[C@@]1(C)O[C@@H]1CC=C(C)C [Fumagillin],2.4,–
COc1cc(CCC(=O)O)ccc1O [Dihydroferulic acid],0.2,–
CC(=O)c1ccc[nH]1 [2-Acetylpyrrole],0,–
Cc1cc(=O)c2c(O)c3c(O)cc(O)c4c5c(O)cc(O)c6c(O)c7c(=O)cc(C)cc7c(c65)c(c2c1)c34 [Protohypericin],-0.2,–
O=C(O)CNC(=O)[C@@H]1CCCN1 [L-Prolylglycine] (H-Pro-Gly-OH),1,–
N=C(N)NCCC[C@H](N)C(=O)O [L-Arginine (hydrochloride)],–,-1.4

# In a second layout: 2 of the compounds above
SMILES	OC43 Inhibition rate [%]	OC43 Inhibition rate (OC43 Inhibition rate, 24 h) [%]
COC(=O)C[C@](O)(CCCC(C)(C)O)C(=O)O[C@@H]1C(OC)=C[C@]23CCCN2CCc2cc4c(cc2[C@H]13)OCO4 [Homoharringtonine]	0.5	–
COc1cc(O)cc(OC)c1 [3,5-Dimethoxyphenol]	-0.4	–

# (listing goes on)

SMILES,OC43 Inhibition rate [%],"OC43 Inhibition rate (OC43 Inhibition rate, 24 h) [%]"
CC(=O)NCCCCCC(=O)O [6-Acetamidohexanoic acid],0.9,–
CC(C)(O)[C@@H]1CC[C@](C)([C@H]2[C@@H](O)C[C@@]3(C)[C@@H]4C[C@H](O[C@@H]5O[C@H](CO)[C@@H](O)[C@H](O)[C@H]5O)[C@H]5C(C)(C)[C@@H](O[C@@H]6OC[C@@H](O)[C@H](O)[C@H]6O)CC[C@@]56C[C@@]46CC[C@]23C)O1 [Astragaloside IV],-0.4,–
C[C@@H]1C[C@H]2O[C@@]3(O[C@@H]2C(C)(C)O)[C@H](O)[C@@]2(C)[C@@H]4CC[C@H]5C(C)(C)[C@@H](O[C@@H]6OC[C@@H](O)[C@H](O)[C@H]6O)CC[C@@]56C[C@@]46CC[C@]2(C)[C@@H]13 [Cimigenoside],1.4,–
COc1ccc2c3ccnc4ccc(=O)n(c2c1)c43 [9-Methoxycanthin-6-one],12,–
COc1cc(/C=C/C(=O)NCC(O)c2ccc(O)cc2)ccc1O (stereo not drawn) [N-Feruloyloctopamine],0.5,–
COc1nccc(N)n1 [2-O-Methylcytosine],0.2,–
C[C@@]12C=Cc3occc3[C@H]1CC[C@@]13C[C@@H](CC[C@H]12)[C@@](O)(CO)C3 [Kahweol],-1.2,–
CC1=NCCc2c1[nH]c1cc(O)ccc21 [Harmalol (hydrochloride)],0.7,–
Nc1c(O)cccc1C(=O)O [3-Hydroxyanthranilic acid],1.1,–
COc1cc(/C=C/C(=O)OC[C@H]2O[C@H](O[C@]3(CO)O[C@H](CO)[C@@H](O)[C@@H]3O)[C@H](O)[C@@H](O)[C@@H]2O)cc(OC)c1O [Sibiricose A1],2.3,–
N#CCc1c[nH]c2ccccc12 [3-Indoleacetonitrile],0.8,–
O=c1cc(-c2ccc(O)cc2)oc2c([C@@H]3O[C@H](CO)[C@@H](O)[C@H](O)[C@H]3O)c(O)c([C@@H]3O[C@H](CO)[C@@H](O)[C@H](O)[C@H]3O)c(O)c12 [Vicenin 2],-0.6,–
CC1=CC=C(C(C)C)CC1 [α-Terpinene],-3.5,–
OCC1=C[C@@H](O)[C@]2(O[C@@H]3O[C@H](CO)[C@@H](O)[C@H](O)[C@H]3O[C@@H]3O[C@H](CO)[C@@H](O)[C@H](O)[C@H]3O)C=CO[C@@H](O[C@@H]3O[C@H](CO)[C@@H](O)[C@H](O)[C@H]3O)[C@H]12 [Rehmannioside D],15.4,–
COC(=O)c1c(C)cc(OC(=O)c2c(C)cc(O)c(C=O)c2O)c(C)c1O [Atranorin],11.8,–
O=C(O)CC(CC(=O)O)C(=O)O [Tricarballylic acid],2.5,–
C=C[C@H]1CN2CC[C@H]1C[C@H]2[C@H](O)c1ccnc2ccccc12 [Cinchonidine],1.2,–
O=C(O)C1=CO[C@@H](O[C@@H]2O[C@H](CO)[C@@H](O)[C@H](O)[C@H]2O)[C@@H]2C(CO)=CC[C@H]12 [Geniposidic acid],-0.1,–
